{"sequences": {"note": "Amino acid sequences for entries named in this document (tags omitted). A change or cut given only in a name is not applied to a line headed by its entry.", "UniProt P11712, whole entry, looked up": "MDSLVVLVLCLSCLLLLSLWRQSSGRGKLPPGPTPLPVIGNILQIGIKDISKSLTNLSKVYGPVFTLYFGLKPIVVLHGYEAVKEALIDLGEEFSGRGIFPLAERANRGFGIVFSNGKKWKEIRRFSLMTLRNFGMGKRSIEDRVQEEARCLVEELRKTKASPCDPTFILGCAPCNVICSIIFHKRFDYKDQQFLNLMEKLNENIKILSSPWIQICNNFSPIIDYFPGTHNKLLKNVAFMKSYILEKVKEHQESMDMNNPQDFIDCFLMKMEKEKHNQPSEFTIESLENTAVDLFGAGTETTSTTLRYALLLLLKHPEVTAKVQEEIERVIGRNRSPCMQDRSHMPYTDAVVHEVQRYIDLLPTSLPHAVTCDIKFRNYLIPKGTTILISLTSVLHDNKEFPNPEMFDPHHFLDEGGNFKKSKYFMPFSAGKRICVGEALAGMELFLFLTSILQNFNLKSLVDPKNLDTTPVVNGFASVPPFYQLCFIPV", "UniProt P05177, whole entry, looked up": "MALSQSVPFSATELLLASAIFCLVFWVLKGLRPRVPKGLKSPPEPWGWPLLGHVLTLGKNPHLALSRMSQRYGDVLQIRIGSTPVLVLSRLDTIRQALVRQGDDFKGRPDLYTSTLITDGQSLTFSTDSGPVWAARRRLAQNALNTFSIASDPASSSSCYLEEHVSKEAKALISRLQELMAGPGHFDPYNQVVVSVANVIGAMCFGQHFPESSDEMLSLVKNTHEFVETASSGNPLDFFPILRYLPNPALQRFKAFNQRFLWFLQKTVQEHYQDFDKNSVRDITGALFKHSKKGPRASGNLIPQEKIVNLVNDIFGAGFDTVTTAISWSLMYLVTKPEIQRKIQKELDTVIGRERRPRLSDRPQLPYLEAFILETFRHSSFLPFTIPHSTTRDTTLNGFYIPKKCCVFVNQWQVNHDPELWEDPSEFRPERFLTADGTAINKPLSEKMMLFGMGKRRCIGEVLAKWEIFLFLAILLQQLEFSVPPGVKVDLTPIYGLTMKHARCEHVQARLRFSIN", "UniProt P08684, whole entry, looked up": "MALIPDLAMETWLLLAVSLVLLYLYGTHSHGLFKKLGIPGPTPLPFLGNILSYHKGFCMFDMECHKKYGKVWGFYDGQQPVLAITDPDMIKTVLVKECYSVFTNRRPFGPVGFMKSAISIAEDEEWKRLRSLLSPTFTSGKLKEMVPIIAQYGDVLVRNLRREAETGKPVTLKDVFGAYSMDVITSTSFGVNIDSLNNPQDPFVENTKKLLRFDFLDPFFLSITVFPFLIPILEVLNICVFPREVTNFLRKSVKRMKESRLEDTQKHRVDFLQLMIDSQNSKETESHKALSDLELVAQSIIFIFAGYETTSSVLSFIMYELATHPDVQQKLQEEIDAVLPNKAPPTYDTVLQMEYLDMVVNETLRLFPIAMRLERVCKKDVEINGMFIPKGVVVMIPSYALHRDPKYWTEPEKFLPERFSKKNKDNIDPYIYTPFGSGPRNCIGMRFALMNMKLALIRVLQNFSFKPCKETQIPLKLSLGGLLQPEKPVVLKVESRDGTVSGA", "UniProt Q12809": "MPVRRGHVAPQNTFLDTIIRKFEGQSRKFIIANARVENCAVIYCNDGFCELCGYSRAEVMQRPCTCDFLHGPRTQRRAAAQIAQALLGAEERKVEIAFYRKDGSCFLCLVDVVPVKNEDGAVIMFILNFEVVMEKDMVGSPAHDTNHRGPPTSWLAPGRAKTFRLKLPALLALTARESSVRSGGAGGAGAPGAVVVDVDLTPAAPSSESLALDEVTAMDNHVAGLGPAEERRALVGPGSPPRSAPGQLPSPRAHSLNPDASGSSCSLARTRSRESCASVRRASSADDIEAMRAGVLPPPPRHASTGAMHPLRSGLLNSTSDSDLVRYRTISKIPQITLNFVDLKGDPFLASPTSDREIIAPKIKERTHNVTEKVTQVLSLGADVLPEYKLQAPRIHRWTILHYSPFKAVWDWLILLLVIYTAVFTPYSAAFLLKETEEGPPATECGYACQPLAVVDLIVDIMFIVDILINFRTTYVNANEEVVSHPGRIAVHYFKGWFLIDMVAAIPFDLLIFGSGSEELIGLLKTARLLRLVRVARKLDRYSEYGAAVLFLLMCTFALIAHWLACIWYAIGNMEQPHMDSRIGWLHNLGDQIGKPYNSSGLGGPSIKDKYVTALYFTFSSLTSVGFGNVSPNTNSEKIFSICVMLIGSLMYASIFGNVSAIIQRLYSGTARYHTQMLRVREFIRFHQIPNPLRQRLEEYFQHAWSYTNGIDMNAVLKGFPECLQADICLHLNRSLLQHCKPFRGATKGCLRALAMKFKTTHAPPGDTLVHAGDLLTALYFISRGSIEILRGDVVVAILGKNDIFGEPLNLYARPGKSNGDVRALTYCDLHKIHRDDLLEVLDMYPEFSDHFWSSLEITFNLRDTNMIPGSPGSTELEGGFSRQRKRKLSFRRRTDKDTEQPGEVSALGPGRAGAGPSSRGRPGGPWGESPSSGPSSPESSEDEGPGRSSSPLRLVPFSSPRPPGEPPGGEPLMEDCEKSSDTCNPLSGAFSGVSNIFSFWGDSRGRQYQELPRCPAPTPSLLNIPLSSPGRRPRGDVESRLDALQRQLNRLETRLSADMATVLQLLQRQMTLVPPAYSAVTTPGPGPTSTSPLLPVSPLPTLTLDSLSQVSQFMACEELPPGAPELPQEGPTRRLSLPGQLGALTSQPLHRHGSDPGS"}, "source": "PubChem BioAssay (Tox21)", "key": {"[1]": {"target": "Cytochrome P450 2C9 (Homo sapiens) (UniProt P11712)", "assay": "Cytochrome P450 Family 2 Subfamily C Member 9 (CYP2C9) small molecule antagonists: luciferase reporter qHTS assay (AID 1671198); note: potency is the fitted concentration of half-maximal effect", "summary_of_the_method": "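CYP2C9 activity was measured with a P450-Glo proluciferin substrate. Enzyme–substrate mix was held with compound for 10 min at room temperature, then NADPH regeneration solution was added for 1 h at 37C. Luciferin product was read as luminescence.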"}, "[2]": {"target": "Cytochrome P450 1A2 (Homo sapiens) (UniProt P05177)", "assay": "Cytochrome P450 Family 1 Subfamily A Member 2 (CYP1A2) small molecule antagonists: luciferase reporter qHTS assay (AID 1671199); note: potency is the fitted concentration of half-maximal effect", "summary_of_the_method": "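CYP1A2 turnover of a luminogenic substrate was quantified after 1 h with NADPH regeneration at room temperature. Furafylline served as positive control.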"}, "[3]": {"target": "Cytochrome P450 3A4 (Homo sapiens) (UniProt P08684)", "assay": "Cytochrome P450 Family 3 Subfamily A Member 4 (CYP3A4) small molecule antagonists: luciferase reporter qHTS assay (AID 1671201); note: series mostly up to about 120 µM", "summary_of_the_method": "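Relative luminescence units after 20 min with luciferin detection reagent served as read-out. Beforehand, CYP3A4 turned over a proluciferin substrate for 1 h at room temperature with NADPH regeneration, following 10 min compound preincubation.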"}, "[4]": {"target": "Voltage-gated inwardly rectifying potassium channel KCNH2 (Homo sapiens) (UniProt Q12809)", "assay": "Human Ether-a-go-go-Related Gene (hERG) channel small molecule antagonists: fluorescence cell-based qHTS assay (AID 1671200);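 note: hERG-expressing U2OS cells given a thallium stimulus after FluxOR II dye loading; series mostly up to about 77 µM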", "summary_of_the_method": "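Thallium served as the potassium surrogate; its influx into dye-loaded U2OS cells carrying the channel was measured by fluorescence over 2 min.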"}}, "note": "“And” between values parts separate entries of the source, which are not always exact repeats. Equal values may be shown once. The inconclusive results got no clear call from the source; some entries with a clear call stand among them for comparison. For part of these data: Potencies beside an inconclusive call are fits to weak or partial responses and may not hold up. The source made the active and inactive calls. Calls come from the whole dose curve; as a rule, active = well fitted curve in the direction sought with a large enough effect in the repeat runs; inconclusive = weak or mixed curves; inactive = no such curve, though single readings can be large; an effect the other way counts as inactive or inconclusive."}
{"compound": "CN(C)CCOC(C)(c1ccccc1)c1ccccn1", "note": "(centres undefined); note: nearly all actives have a fitted effect of over 50% in size", "values": [{"measurement": "Potency", "setting": "[1]", "result": "inconclusive: 71.2 µM [inhibitor, single point]"}, {"measurement": "Potency", "setting": "[2]", "result": "inconclusive: 35.7 µM [inhibitor, partial curve] and inconclusive: 71 µM [inhibitor, partial curve]"}]}
{"compound": "CC(C)OB(OC(C)C)OC(C)C", "values": [{"measurement": "Potency", "setting": "[1]", "result": "inconclusive: 79.9 µM [inhibitor, single point]"}, {"measurement": "Potency", "setting": "[2]", "result": "inconclusive: 39.9 µM [inhibitor, partial curve]"}, {"measurement": "Potency", "setting": "[3]", "result": "inactive"}]}
{"compound": "C=CC(=O)OCCC#N", "values": [{"measurement": "Potency", "setting": "[1]", "result": "inactive"}]}
{"compound": "O=C1c2ccccc2C(=O)c2cc(S(=O)(=O)O)ccc21", "values": [{"measurement": "Potency", "setting": "[1]", "result": "active: 12.7 µM"}, {"measurement": "Potency", "setting": "[2]", "result": "inconclusive: 71.3 µM [inhibitor]"}]}
{"compound": "CN=C(NC#N)Nc1ccc(C2=NNC(=O)CC2C)cc1", "note": "(centres undefined)", "values": [{"measurement": "Potency", "setting": "[1]", "result": "inactive"}]}
{"compound": "CCC(C)CO", "note": "(centres undefined)", "values": [{"measurement": "Potency", "setting": "[1]", "result": "inconclusive: 44.3 µM [inhibitor, partial curve]"}, {"measurement": "Potency", "setting": "[4]", "result": "inactive"}]}
{"compound": "O=C(O)c1ccccc1-n1cc(C(=O)O)c(=O)c2cc(Nc3c(F)cc(F)cc3Cl)c(Cl)cc21", "values": [{"measurement": "Potency", "setting": "[1]", "result": "inconclusive: 79.6 µM [inhibitor, single point]"}, {"measurement": "Potency", "setting": "[2]", "result": "inactive"}]}
{"compound": "CCO[Si](C)(OCC)OCC", "values": [{"measurement": "Potency", "setting": "[1]", "result": "inactive"}, {"measurement": "Potency", "setting": "[2]", "result": "inconclusive: 35.6 µM [inhibitor, partial curve]"}]}
{"compound": "CC(=O)Oc1ccc(C2(c3ccc(OC(C)=O)cc3)C(=O)Nc3ccccc32)cc1", "values": [{"measurement": "Potency", "setting": "[1]", "result": "active: 5.49 µM"}, {"measurement": "Potency", "setting": "[3]", "result": "inactive"}]}
{"compound": "CCO[Si](C)(CCCOCC1CO1)OCC", "note": "(centres undefined)", "values": [{"measurement": "Potency", "setting": "[1]", "result": "inconclusive: 63.3 µM [inhibitor, partial curve, poor fit]"}, {"measurement": "Potency", "setting": "[2]", "result": "inconclusive: 71 µM [inhibitor, partial curve]"}]}
{"compound": "CC1(C)NC(=O)NC1=O", "values": [{"measurement": "Potency", "setting": "[1]", "result": "inconclusive: 80.2 µM [inhibitor, single point]"}, {"measurement": "Potency", "setting": "[2]", "result": "inconclusive: 32.8 µM [inhibitor, partial curve, poor fit]"}]}
{"compound": "O=C(c1ccccc1)C1CCCCC1", "values": [{"measurement": "Potency", "setting": "[1]", "result": "inconclusive: 71 µM [inhibitor, partial curve]"}, {"measurement": "Potency", "setting": "[2]", "result": "active: 44.8 µM"}]}
{"compound": "Cc1c(NC(C)C)c(=O)n(-c2ccccc2)n1C", "values": [{"measurement": "Potency", "setting": "[1]", "result": "inactive"}]}
